Assay results from paper PMC11656736.

By UniProt entry, the sequences of proteins in these tests, tags left out.
UniProt Q8DVD0: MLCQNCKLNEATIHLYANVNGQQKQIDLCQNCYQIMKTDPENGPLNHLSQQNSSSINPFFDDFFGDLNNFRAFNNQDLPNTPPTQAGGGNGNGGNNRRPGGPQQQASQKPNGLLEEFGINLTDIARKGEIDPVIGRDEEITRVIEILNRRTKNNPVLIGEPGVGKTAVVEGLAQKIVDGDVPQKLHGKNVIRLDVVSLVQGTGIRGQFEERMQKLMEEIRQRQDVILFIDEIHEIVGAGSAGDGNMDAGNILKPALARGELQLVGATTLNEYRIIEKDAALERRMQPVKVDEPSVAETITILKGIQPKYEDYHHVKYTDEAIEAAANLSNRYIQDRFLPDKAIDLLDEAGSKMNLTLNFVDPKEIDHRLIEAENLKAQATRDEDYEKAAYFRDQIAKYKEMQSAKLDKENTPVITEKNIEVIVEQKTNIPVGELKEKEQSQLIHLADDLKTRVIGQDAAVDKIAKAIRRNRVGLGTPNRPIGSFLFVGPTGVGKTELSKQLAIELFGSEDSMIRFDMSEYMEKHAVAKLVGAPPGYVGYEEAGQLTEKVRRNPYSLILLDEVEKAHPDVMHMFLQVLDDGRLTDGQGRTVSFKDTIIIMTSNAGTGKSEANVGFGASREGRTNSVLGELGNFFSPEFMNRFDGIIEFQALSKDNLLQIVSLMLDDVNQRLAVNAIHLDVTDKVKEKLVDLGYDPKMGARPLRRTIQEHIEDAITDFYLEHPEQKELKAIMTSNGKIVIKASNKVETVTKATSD
UniProt Q8DUI0: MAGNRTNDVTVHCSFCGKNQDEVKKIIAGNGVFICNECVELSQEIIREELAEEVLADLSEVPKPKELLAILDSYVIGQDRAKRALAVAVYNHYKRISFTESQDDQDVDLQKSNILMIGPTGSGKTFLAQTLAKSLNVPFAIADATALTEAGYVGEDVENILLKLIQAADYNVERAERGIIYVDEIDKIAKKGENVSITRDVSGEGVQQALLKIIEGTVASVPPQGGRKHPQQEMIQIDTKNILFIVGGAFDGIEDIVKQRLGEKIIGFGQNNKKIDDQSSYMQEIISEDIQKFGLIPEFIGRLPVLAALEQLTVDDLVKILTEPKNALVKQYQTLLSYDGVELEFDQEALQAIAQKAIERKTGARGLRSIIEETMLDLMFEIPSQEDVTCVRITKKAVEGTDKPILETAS
UniProt O07329: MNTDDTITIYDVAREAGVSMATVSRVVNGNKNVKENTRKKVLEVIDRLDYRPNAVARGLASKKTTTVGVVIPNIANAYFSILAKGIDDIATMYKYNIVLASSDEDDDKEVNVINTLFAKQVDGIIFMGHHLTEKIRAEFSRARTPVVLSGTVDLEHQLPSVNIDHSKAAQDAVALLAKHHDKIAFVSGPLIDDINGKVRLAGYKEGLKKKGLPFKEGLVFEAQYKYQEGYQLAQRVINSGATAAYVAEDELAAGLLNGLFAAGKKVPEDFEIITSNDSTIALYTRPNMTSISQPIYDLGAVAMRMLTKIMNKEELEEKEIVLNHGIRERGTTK

Target: T1, recombinant MecA (rMecA), His-tagged (Streptococcus mutans) (UniProt Q8DW33)
T1 sequence: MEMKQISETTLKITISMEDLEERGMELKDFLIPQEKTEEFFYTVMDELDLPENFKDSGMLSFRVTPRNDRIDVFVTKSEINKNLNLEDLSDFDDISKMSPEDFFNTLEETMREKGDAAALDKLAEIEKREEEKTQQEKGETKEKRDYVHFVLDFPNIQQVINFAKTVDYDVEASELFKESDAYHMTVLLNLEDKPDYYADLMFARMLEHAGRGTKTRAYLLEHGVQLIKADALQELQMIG
Test: affinity purification with mass spectrometry; His-tagged rMecA (bait) immobilised on Ni-NTA resin, incubated with S. mutans cell lysate in KMNP buffer (2 mM MgCl2, 50 mM NaCl, 50 mM K2HPO4/KH2PO4, PMSF) overnight at 4°C; column washed, eluted under native conditions; SDS-PAGE, LC/MS; only the target purified

binding | Substance
binds | ATPase ClpE (from UniProt Q8DVD0 1-753)
binds | ATPase ClpX (from UniProt Q8DUI0 1-410)
binds | carbon catabolite repressor protein CcpA (from UniProt O07329 1-333)

Results are given in words; binding and its absence hold for the method and conditions named. In cells and extracts the contact can be indirect. These calls come from enrichment with a bait or labelling near it, and not all partners need be listed. Where a sequence is shown, tags or fusion partners need not be part of it.
